Our source for the binding values is article PMC8184850, “Cryo-EM structure of TFIIH/Rad4–Rad23–Rad33 in damaged DNA opening in nucleotide excision repair” (Nature Communications, 2021).

Assay [1] deals with T1, Ssl2 (Saccharomyces cerevisiae), Q00578.
T1 chain: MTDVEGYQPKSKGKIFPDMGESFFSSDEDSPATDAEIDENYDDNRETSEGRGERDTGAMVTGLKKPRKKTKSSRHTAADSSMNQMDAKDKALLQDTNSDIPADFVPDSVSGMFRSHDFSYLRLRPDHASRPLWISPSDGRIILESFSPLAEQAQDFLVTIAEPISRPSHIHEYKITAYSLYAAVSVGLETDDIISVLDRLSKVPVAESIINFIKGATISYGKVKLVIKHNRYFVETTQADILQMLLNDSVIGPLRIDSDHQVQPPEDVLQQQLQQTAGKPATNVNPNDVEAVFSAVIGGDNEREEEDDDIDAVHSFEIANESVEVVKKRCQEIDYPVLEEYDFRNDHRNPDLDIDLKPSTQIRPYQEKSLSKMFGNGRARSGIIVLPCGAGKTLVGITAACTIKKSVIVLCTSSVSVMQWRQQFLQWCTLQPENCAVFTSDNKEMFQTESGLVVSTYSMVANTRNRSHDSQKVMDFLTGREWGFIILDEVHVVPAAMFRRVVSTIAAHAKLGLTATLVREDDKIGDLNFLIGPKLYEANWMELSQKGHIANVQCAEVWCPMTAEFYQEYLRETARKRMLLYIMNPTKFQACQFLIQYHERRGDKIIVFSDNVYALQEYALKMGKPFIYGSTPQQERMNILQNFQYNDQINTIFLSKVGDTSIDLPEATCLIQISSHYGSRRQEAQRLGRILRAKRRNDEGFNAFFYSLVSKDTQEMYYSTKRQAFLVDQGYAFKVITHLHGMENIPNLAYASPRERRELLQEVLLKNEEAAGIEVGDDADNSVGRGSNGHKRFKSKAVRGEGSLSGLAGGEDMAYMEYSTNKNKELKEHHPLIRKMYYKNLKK
Nature of the assay: cryo-EM structure; coreTFIIH and Rad4–Rad23–Rad33 on −24*/+24 AAF-DNA with ATP, glycerol gradient with glutaraldehyde; Map 1 3.86 Å (TFIIH), Map 2 9.2 Å, Map 3 7.9 Å; Rad4, Rad33 and the Tfb1 PH domain placed by rigid-body docking of known structures or homology models; both purified. The settings on record: remark: other sources report otherwise.

For another assay, the target named is T2, 7-subunit coreTFIIH (Saccharomyces cerevisiae | yeast, UniProt Q00578 1-843; P06839 1-778; P32776 1-642; Q02939 1-513; Q04673 1-461; Q12004 …).
T2 construct: Ssl2 (XPB homologue), ATPase/translocase subunit of yeast coreTFIIH; printed numbering runs to residue 843; Rad3 (XPD homologue), helicase subunit of yeast coreTFIIH; Tfb1 (p62 homologue), subunit of yeast coreTFIIH; Tfb2 (p52 homologue), subunit of yeast coreTFIIH; Ssl1 (p44 homologue), subunit of yeast coreTFIIH; Tfb4 (p34 homologue), subunit of yeast coreTFIIH; Tfb5 (p8 homologue), subunit of …
Nature of the assay: condition: only with AMP-PNP instead of ATP; Rad2 in ~6-fold molar excess; co-sedimentation; factor challenge as a5 but with AMP-PNP instead of ATP; both purified.

No constants are given. Whether binding was seen depends on the method and setting. Some binding calls cover weakened binding; strength is not graded here. For some assays here: Where a sequence is shown, tags or fusion partners need not be part of it.

B1: Tfb5 (natural protein, yeast, UniProt Q3E7C1 1-72, looked up)
chain: MARARKGALVQCDPSIKALILQIDAKMSDIVLEELDDTHLLVNPSKVEFVKHELNRLLSKNIYNPMDEEENQ
notes: Tfb5 (p8 homologue), subunit of yeast coreTFIIH; Stood in the assays as part of coreTFIIH; also called yeast homologue of p8; source: purified from yeast as a subunit of coreTFIIH
As to B1, the binding result in assay [1] was “binds”.

B2: Rad2 (natural protein, yeast, UniProt P07276 1-1031, looked up)
chain: MGVHSFWDIAGPTARPVRLESLEDKRMAVDASIWIYQFLKAVRDQEGNAVKNSHITGFFRRICKLLYFGIRPVFVFDGGVPVLKRETIRQRKERRQGKRESAKSTARKLLALQLQNGSNDNVKNSTPSSGSSVQIFKPQDEWDLPDIPGFKYDKEDARVNSNKTFEKLMNSINGDGLEDIDLDTINPASAEFEELPKATQYLILSSLRLKSRLRMGYSKEQLETIFPNSMDFSRFQIDMVKRRNFFTQKLINTTGFQDGGASKLNEEVINRISGQKSKEYKLTKTNNGWILGLGANDGSDAQKAIVIDDKDAGALVKQLDSNAEDGDVLRWDDLEDNSLKIVRHESSNATTAPQKRSNRSEDEGCDSDECEWEEVELKPKNVKFVEDFSLKAARLPYMGQSLNNAGSKSFLDKRHDQASPSKTTPTMRISRISVEDDDEDYLKQIEEIEMMEAVQLSKMEKKPEADDKSKIAKPVTSKGTEARPPIVQYGLLGAQPDSKQPYHVTNLNSKSESVIKRTSKTVLSEFRPPSQQEDKGAILTEGEQNLNFISHKIPQFDFNNENSLLFQKNTESNVSQEATKEKSPIPEMPSWFSSTASQQLYNPYNTTNFVEDKNVRNEQESGAETTNKGSSYELLTGLNATEILERESEKESSNDENKDDDLEVLSEELFEDVPTKSQISKEAEDNDSRKVESINKEHRKPLIFDYDFSEDEEDNIVENMIKEQEEFDTFKNTTLSTSAERNVAENAFVEDELFEQQMKDKRDSDEVTMDMIKEVQELLSRFGIPYITAPMEAEAQCAELLQLNLVDGIITDDSDVFLFGGTKIYKNMFHEKNYVEFYDAESILKLLGLDRKNMIELAQLLGSDYTNGLKGMGPVSSIEVIAEFGNLKNFKDWYNNGQFDKRKQETENKFEKDLRKKLVNNEIILDDDFPSVMVYDAYMRPEVDHDTTPFVWGVPDLDMLRSFMKTQLGWPHEKSDEILIPLIRDVNKRKKKGKQKRINEFFPREYISGDKKLNTSKRISTATGKLKKRKM
notes: Rad2 (XPG homologue), yeast; plasmid pGVD52-RAD2HisSumo; also called yeast homolog of XPG; source: E. coli Rosetta(DE3), purified (HisTrap, Ulp1 cleavage, HisTrap flow-through, Heparin HP)
On to B2, for which, in the assay with 7-subunit coreTFIIH, the binding entry is recorded as “no binding”.
